Reference: article PMC4393279
Results are given in words; binding and its absence hold for the method and conditions named. In cells and extracts the contact can be indirect. Some binding calls cover weakened binding; strength is not graded here. For some of these results: Sequences can lack the tags named with a protein.

Protein sequences, listed by entry. Tags and fused reporters are not part of them.
UniProt Q8VE09: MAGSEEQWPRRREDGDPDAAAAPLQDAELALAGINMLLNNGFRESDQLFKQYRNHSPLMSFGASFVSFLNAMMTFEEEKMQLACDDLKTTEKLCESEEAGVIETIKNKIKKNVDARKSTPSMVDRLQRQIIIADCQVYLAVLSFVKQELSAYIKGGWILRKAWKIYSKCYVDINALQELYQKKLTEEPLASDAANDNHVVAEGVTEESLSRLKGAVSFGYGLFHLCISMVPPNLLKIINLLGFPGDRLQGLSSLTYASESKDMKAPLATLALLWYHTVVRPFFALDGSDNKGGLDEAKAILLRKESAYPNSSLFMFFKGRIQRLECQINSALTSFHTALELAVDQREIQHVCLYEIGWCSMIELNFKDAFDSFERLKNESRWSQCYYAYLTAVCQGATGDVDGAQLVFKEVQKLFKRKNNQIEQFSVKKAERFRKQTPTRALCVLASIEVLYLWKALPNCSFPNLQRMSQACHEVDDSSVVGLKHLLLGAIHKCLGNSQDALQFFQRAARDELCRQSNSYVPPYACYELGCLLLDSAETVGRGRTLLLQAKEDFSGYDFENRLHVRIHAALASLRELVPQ

T1: GST-tagged mouse BBS7 (mouse) (UniProt Q8K2G4)
T1 sequence: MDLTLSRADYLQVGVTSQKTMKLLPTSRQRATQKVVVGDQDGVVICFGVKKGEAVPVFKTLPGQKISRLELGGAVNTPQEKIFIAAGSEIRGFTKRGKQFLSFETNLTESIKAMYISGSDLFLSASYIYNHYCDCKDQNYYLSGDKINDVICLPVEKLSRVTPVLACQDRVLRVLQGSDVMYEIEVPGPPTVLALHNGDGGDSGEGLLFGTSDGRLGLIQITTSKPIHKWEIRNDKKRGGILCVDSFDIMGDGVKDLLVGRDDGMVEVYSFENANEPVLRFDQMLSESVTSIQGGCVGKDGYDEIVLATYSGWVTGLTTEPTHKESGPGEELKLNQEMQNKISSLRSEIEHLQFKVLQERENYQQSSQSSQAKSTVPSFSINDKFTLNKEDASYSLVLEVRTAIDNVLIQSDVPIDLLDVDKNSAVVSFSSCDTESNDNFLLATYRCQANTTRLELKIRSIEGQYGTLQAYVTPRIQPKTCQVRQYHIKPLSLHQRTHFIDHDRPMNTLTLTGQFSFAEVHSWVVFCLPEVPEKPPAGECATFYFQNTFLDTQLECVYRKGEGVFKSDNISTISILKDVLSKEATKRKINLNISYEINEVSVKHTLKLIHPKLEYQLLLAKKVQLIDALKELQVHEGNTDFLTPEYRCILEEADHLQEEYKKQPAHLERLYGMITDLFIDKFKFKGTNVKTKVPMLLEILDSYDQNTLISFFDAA


What was measured:
[1] = molecular target: T1, GST-tagged mouse BBS7 (mouse); experiment: pull-down; GST-BBS7 on glutathione-agarose beads incubated with bacterial lysate containing His-tagged protein, 2 h at 4°C; wash 20 mM Tris-Cl pH 7.5, 150 mM KCl, 0.5% NP-40; western blotting; only the target purified
[2] = molecular target: FLAG-tagged mouse TTC39c (mouse) (UniProt Q8VE09); experiment: co-IP; HEK293T lysates with FLAG-tagged TTC proteins mixed with mouse testis lysates, 2 h at 4°C, then anti-FLAG resin; lysis buffer 20 mM Tris-Cl pH 7.5, 100 mM KCl, 1% NP-40; immunoblotting

Binder	binding [1]	binding [2]
His-tagged human TTC4 (protein, UniProt O95801 1-387) MEQPGQDPTSDDVMDSFLEKFQSQPYRGGFHEDQWEKEFEKVPLFMSRAPSEIDPRENPDLACLQSIIFDEERSPEEQAKTYKDEGNDYFKEKDYKKAVISYTEGLKKKCADPDLNAVLYTNRAAAQYYLGNFRSALNDVTAARKLKPCHLKAIIRGALCHLELKHFAEAVNWCDEGLQIDAKEKKLLEMRAKADKLKRIEQRDVRKANLKEKKERNQNEALLQAIKARNIRLSEAACEDEDSASEGLGELFLDGLSTENPHGARLSLDGQGRLSWPVLFLYPEYAQSDFISAFHEDSRFIDHLMVMFGETPSWDLEQKYCPDNLEVYFEDEDRAELYRVPAKSTLLQVLQHQRYFVKALTPAFLVCVGSSPFCKNFLRGRKVYQIR	binds	–
His-tagged human TTC9c (protein, UniProt Q8N5M4-1 1-171) MEKRLQEAQLYKEEGNQRYREGKYRDAVSRYHRALLQLRGLDPSLPSPLPNLGPQGPALTPEQENILHTTQTDCYNNLAACLLQMEPVNYERVREYSQKVLERQPDNAKALYRAGVAFFHLQDYDQARHYLLAAVNRQPKDANVRRYLQLTQSELSSYHRKEKQLYLGMFG	binds	–
IFT144 (protein, UniProt Q3UGF1 1-1341) MKRVFSLLEKSWLGAPIQFAWQKSSGNYLAVTGADYIVKIFDRHGQKRSEISLPGNCVTMDWDKDGDILAVIAEKSSCIYLWDANTNKTSQLDNGMRDQMSFLLWSKIGSFLAVGTIKGNLLIYNHQTSRKIPVLGKHTKKITCGCWNSENLLALGGEDKMITVSNQEGDTIRQTPVKSEPSDIKFSMSKTDERISSAENTISAVVGKKMLFLFHLNEPDNPVDLEFQQAYGNIVCYSWYGDGYIMIGFSRGTFLAISTHFPEVGQEIFKARDHKDNLTSVALSQTLNKAATCGDNCIKIHDLTELRDMYAIINLDDENKGLGTLSWTDDGQLLALSTQRGSLHVFLTKLPILGDACHTRIAYLTSLLEVTVANLIEGEPPITVSVDVEPTFVAVGLYHLAVGMNNRAWFYVLGENVVKKLKDVEYLGTVASICLHSDYAAALFEGKIQLHLIENEMLDAQEERETRLFPAVDDKCRILCHALTSDFLIYGTDTGIIHYFFIEDWQFVNDYRHPVGVKKLFPDPNGTRLVFIDEKSDGFVYCPVNDATYEIPDFSPTIKGVLWENWPMDKGVFIAYDDDKVYTYAFHKDTIQGSKVILAGSTKLPFSHKPLLLYNGELTCQTQSGKINSIYLSTHSFLGSMKDTEPTDLRQMLTQTLLLKRFSDAWDICKMLNDRTSWSELAKACLHHMEVEFAIRVSRTMGDVGTVMSLEQIKGIEDYNLLAGHLAMFTNDFNLAQDLYLASNCPVAALEMRRDLQHWDSALQLAKRLAPDQIPFISKEYAIQLEFTGDYVNALAHYEKGITGDNKEHDEVCLAGVAQMSIRMGDIRRGANQALKHPSRVLKRDCGAILENMKQFSEAAQLYEKGQYYDRAASVYIRCKNWAKVGELLPHVSSPKIHLQYAKAKEADGRYKEAVVAYENAKQWNSVIRIYLDHLNNPEKAVSIVRETQSLDGAKMVARFFLQLGDYGSAIQFLVLSKCNNEAFTLAQQHNKMEIYADIIGAEDTTNEDYQSIALYFEGEKRHFQAGKFFLLCGQYSRALKHFLKCPSSEDNVAIEMAIETVGQAKDELLTNQLIDHLMGESDGMPKDAKYLFRLYMALKQYREAARTAIIIAREEQSAGNYRNAHDVLFSMYAELKAQKIKIPSEMATNLMILHSYILVKIHVKSGDHMKGARMLIRVANNISKFPSHIVPILTSTVIECHRAGLKNSAFSFAAMLMRPEYRNKIDAKYKKKIEAMVRRPDTSETEEATTPCPFCQFLLPECELLCPGCKNNIPYCIATGRHMLKDDWTMCPHCGFPALYSEFKILLNSESTCPMCSERLNSSQLKKITDCSQYLRTEME	–	binds weakly
IFT139 (protein, UniProt Q0HA38 1-1315) MDSQGLKTLINYYCQERYYHHVLLVASEGMKKYSSDPVFRFYHAYGTLMEGKAQEALREFEAIKNKQDVSLCSLMALMYVHKMSPNPDREAILELDTKMKEQRKEAGRKALYHAGLFLWHIGRHDKAREYIDRMSKMPHDSNEGPILKAWLDITRGKEPYAKKALRYFEEGLQDGNDIFALLGKVLCLEIRQNYSGALETVSQIIVNFPSFLPAFEKKMKLQLALQDWDQTVETAQRLLLQDNHNVEALRMLALYYLCREGDVEKAATKLENLGNALDVMEPQNAQLFYKITLAFSRTCGRNQLILQKVQSFLEKAFSLTPQQAEIATELGYQMILQGKVKEAWKWYRTAMTLNESNISAVTGLIRCQLIEGQLQDADQQLEFFSEFQQSMGKSAELMYLHAVLATKKNNRQDEVINLLNDVVNTHFSHLEDLPLGIQYFEKLNPDFLLEVVTEYLNLCPIQPAGPGQPLSPVLRRCSSVLETIIRSVPGLPQAVFLMAKVKYLSGDTEAAYNNLQHCLEHSPSYAEAHLLMAQVYLSQDKVKLCSQSLELCLSYNFNVREYPLYHLIKAQSQKKMGEVAEAIKTLHMAMNLPGMRRSRASSKSKHRTEVDASHRLSIFLELVEVHRLNGEQHEAAKVLQDAIHEFSGTCEELRVTIANADLALAQGDTDRALSMLRNVTTEQPYFIEAKEKMADIYLKHRKEKMLYITCYREIAERMPSPRSFLLLGDAYMNIQEPEEAIVAYEQALNQNPKDGTLARKIGKALVKTHNYSKAITYYEAALKSGQQNCLCYDLAELLLRLKLYEKAEKVLQHSLAHEPVSELSALMVDGRSQVLLAKVYSKMERPSDAIAALQQARELQARILKRVQMEQPDAVPSQKHFAAEICAEIAKHSAAQRDYEKAITFYREALVHCETDSKIMLELAQLYLAQEDLDASLRHCALLLQRDQDNEPATMLMADLMFRKQDYEQAVYHLQQLLDRKPDNFMTLSRLIDLLRRCGKLEDVPRFFLMAEKHNSRTKLEPGFQYCKGLHFWYTGEPNDALRHFNKARKDSDWGQNALYNMIEICLNPDNETIGGEVFENLNGDLGTSPEKQESVQLAVRTAEKLLKELKPQTVQGRLQLRIMENCCLMATKQKSSVEQALNTFTEIAASEKDHIPALLGMATAYMILKQTPKARNQLKRIAKMPWNPIEAEDLEKSWLLLADIYIQSAKYDMAEELLKRCLCHNRSCCKAYEYMGYIMEKEQAYTDAAFNYEMAWKHSNQTNPAVGYKLAFNYLKAKRYVDAIDVCHQVLEAHPTYPKIRKDILDKARASLRP	–	binds weakly
